PubChem BioAssay AID1224826, NIAID, 2016
The whole screen tested about 17,000 reagents; shown is an unselected part. Of all reagents, about 1,110 (6.6%) are marked active. 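Active means lowered or raised reporter signal; replicate intensities are raw and not normalised per plate.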 Entries without a mark were called inactive. No sequences are given here.

- Aim: 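Regulators of Tlr4 signalling leading to Tnf-alpha expression in macrophages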 (primary screen)
- Cell system: RAW264.7 G9 macrophages from mouse bearing reporters for p65 (GFP) and the Tnf promoter (mCherry)
- Reagent: siRNA pool against mouse genes, 100 nM
- Time to read-out: 16 h of LPS stimulation, after 2 days of siRNA transfection
- Challenge: bacterial lipopolysaccharide (Salmonella minnesota R595), 10 ng/ml
- Measurement: 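Nuclear mCherry signal of the Tnf promoter reporter measured by imaging after background removal, scaled to each plate median and turned into robust z-scores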
- Direction: Tnf reporter robust z-score: higher = stronger Tnf promoter reporter signal after LPS; Tnf reporter intensity: higher = stronger Tnf promoter reporter signal
- Call rule: 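a well counts as active at a score of -1.3 or below (Tlr4 knock-down control median) or above 3 (raised signal); controls and wells holding fewer than 50 cells are excluded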
- Meaning of the calls: active = Tnf reporter clearly lowered or raised; inactive = no clear change in Tnf reporter

The opening 2 records, to show the layout:
Target gene | Tnf reporter robust z-score | fewer than 50 cells in well | Tnf reporter intensity, replicate 1 | Tnf reporter intensity, replicate 2
Abcc1 (ATP-binding cassette, sub-family C member 1) | 0.25 | enough cells in well | 158 | 186
4930544M13Rik (RIKEN cDNA 4930544M13 gene) | – | fewer than 50 cells per well; well left out of calls | 161 | 53.8

Results, from the start:
Target gene | Tnf reporter robust z-score | fewer than 50 cells in well | Tnf reporter intensity, replicate 1 | Tnf reporter intensity, replicate 2
Abcc1 (ATP-binding cassette, sub-family C member 1) | 0.25 | enough cells in well | 158 | 186
4930544M13Rik (RIKEN cDNA 4930544M13 gene) | – | fewer than 50 cells per well; well left out of calls | 161 | 53.8
Or10ag2 (olfactory receptor family 10 subfamily AG member 2) | 0.26 | enough cells in well | 187 | 177
Slc16a9 | -1.52 (active) | enough cells in well | 49.4 | 49.4
Or2ak6 (olfactory receptor family 2 subfamily AK member 6) | 2.74 | enough cells in well | 359 | 225
Or4c11b (olfactory receptor family 4 subfamily C member 11B) | 1.6 | enough cells in well | 244 | 267
Rnf125 (ring finger protein 125) | 2.39 | enough cells in well | 254 | 208
Ttbk1 (tau tubulin kinase 1) | -0.03 | enough cells in well | 111 | 120
Dlgap4 (DLG associated protein 4) | 3.36 (active) | enough cells in well | 316 | 300
Etv5 (ets variant 5) | 0.23 | enough cells in well | 247 | 248
Vsig2 (V-set and immunoglobulin domain containing 2) | 0.4 | enough cells in well | 191 | 167
Atl2 (atlastin GTPase 2) | -0.11 | enough cells in well | 146 | 176
Snurf (SNRPN upstream reading frame) | – | fewer than 50 cells per well; well left out of calls | 47.4 | 46
Dhrs7 (dehydrogenase/reductase 7) | 0.16 | enough cells in well | 232 | 143
T (brachyury, T-box transcription factor T) | -0.7 | enough cells in well | 225 | 155
Ca13 (carbonic anhydrase 13) | 0.42 | enough cells in well | 130 | 281
Ric3 (RIC3 acetylcholine receptor chaperone) | 0.6 | enough cells in well | 227 | 137
Gnal | -1.15 | enough cells in well | 114 | 111
Pan2 (PAN2 poly(A) specific ribonuclease subunit) | -0.1 | enough cells in well | 221 | 224
Rab11fip4 (RAB11 family interacting protein 4 (class II)) | 0.36 | enough cells in well | 167 | 198
Or8g21 (olfactory receptor family 8 subfamily G member 21) | -0.08 | enough cells in well | 150 | 122
Pabir1 | -0.31 | enough cells in well | 156 | 43.4
Pold3 (polymerase (DNA-directed), delta 3, accessory subunit) | -1.93 (active) | enough cells in well | 51.1 | 39.8
Vps26a (VPS26 retromer complex component A) | 2.04 | enough cells in well | 192 | 157
